PubChem BioAssay AID493246 – Drosophila RNAi Screening Center, 2011
The deposit covers about 21,000 reagents; shown is an unselected part of those that have a named target and a result. In the full data, 429 (2%) are marked active. 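Values are raw and not normalised between plates; calls rest on per-plate z-scores that were not deposited.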 The numbers tell different reagents against one gene apart. Names joined by + are all predicted targets of the reagent. Reagent sequences are not shown. Not stated in the record: the amount of reagent, the time to read-out.

- Aim: 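Identify essential fly genes by loss of cell viability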 (primary screen)
- Cell system: Drosophila Kc and S2R+ cells
- Reagent: long dsRNA against Drosophila genes
- Measurement: 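Raw, unnormalised count of remaining cells in each well; per-plate z-scores of cell number underlie the calls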
- Direction: Kc cell number and S2R+ cell number: higher = more cells remaining
- Active means: 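Active when the per-plate z-score of cell number is 3 or more in the direction of fewer cells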

gene | dsRNA no. | Kc cell number, rep 1 | Kc cell number, rep 2 | S2R+ cell number, rep 1 | S2R+ cell number, rep 2 | call
Srlp (Spliceosome-ribosome linker protein) | 1 | 5.56e5 | 6.86e5 | 4.79e5 | 5.63e5 | active
Xpc (Xeroderma pigmentosum, complementation group C) | 1 | 1.10e6 | 1.23e6 | 8.85e5 | 8.40e5 | inactive
CR34254 (pseudo) | 1 | 1.58e6 | 1.68e6 | 1.11e6 | 1.32e6 | inactive
CG13023 | 1 | 1.58e6 | 1.66e6 | 1.19e6 | 1.36e6 | inactive
CG13023 | 2 | 1.42e6 | 1.55e6 | 1.33e6 | 1.31e6 | inactive
CG12684 | 1 | 1.44e6 | 1.42e6 | 1.07e6 | 1.12e6 | inactive
CG6738 | 1 | 1.54e6 | 1.70e6 | 1.02e6 | 1.11e6 | inactive
Roc1b + Cdc5 | 1 | 1.53e6 | 1.38e6 | 8.32e5 | 9.65e5 | inactive
CG42686 (retired record) | 1 | 7.17e5 | 8.50e5 | 4.46e5 | 5.24e5 | active
CG42686 (retired record) | 2 | 1.60e6 | 1.54e6 | 1.01e6 | 1.12e6 | inactive
Rpt4R (Regulatory particle triple-A ATPase 4-related) | 1 | 1.40e6 | 1.42e6 | 1.23e6 | 1.32e6 | inactive
alph (alphabet) | 1 | 5.05e5 | – | 6.77e5 | – | inactive
CG11353 | 1 | 1.49e6 | 1.65e6 | 1.30e6 | 1.13e6 | inactive
yellow-g | 1 | 1.44e6 | 1.29e6 | 9.90e5 | 1.22e6 | inactive
CG4646 | 1 | 1.47e6 | 1.51e6 | 1.34e6 | 1.41e6 | inactive
CG4882 | 1 | 1.46e6 | 1.53e6 | 1.21e6 | 1.38e6 | inactive
CG12963 | 1 | 1.71e6 | 1.68e6 | 1.26e6 | 1.46e6 | inactive
ND-24L (NADH dehydrogenase (ubiquinone) 24 kDa subunit-like) | 1 | 1.64e6 | 1.87e6 | 1.39e6 | 1.48e6 | inactive
CG8613 | 1 | 1.44e6 | 1.50e6 | 1.22e6 | 1.18e6 | inactive
CG10527 | 1 | 1.39e6 | 1.45e6 | 1.02e6 | 1.10e6 | inactive
CG12483 | 1 | 1.31e6 | 1.38e6 | 9.91e5 | 1.37e6 | inactive
und (uninitiated) | 1 | 1.50e6 | 1.55e6 | 9.86e5 | 1.02e6 | inactive
Traf6 (TNF-receptor-associated factor 6) | 1 | 1.62e6 | 1.63e6 | 1.07e6 | 1.22e6 | inactive
CG8064 | 1 | 1.61e6 | 1.71e6 | 1.35e6 | 1.37e6 | inactive

No new results follow: entries from further up.
gene | dsRNA no. | Kc cell number, rep 1 | Kc cell number, rep 2 | S2R+ cell number, rep 1 | S2R+ cell number, rep 2 | call
CG12684 | 1 | 1.44e6 | 1.42e6 | 1.07e6 | 1.12e6 | inactive
CG6738 | 1 | 1.54e6 | 1.70e6 | 1.02e6 | 1.11e6 | inactive
